# The list shows a part of the results.
# Experiments:
# Experiment in all cases: protein microarray (ProtoArray v5.0), streptavidin-Alexa Fluor 647
# Conditions in all cases: 3'-biotin; 20 mM Tris (pH 7.5), 5 mM MgCl2, 100 mM KCl, 0.1% Tween-20, A/T-rich and random oligonucleotide blockers; temperature not stated; high values mean tight binding
# ORM2 (human) = tested on: ORM2 (human)
# ORMDL2 (human) = tested on: ORMDL2 (human)
# OSBPL1A (human) = tested on: OSBPL1A (human)
# OSTbeta (human) = tested on: OSTbeta (human)
# OTUB2 (human) = tested on: OTUB2 (human)
# [1] = tested on: Olfactory receptor 3A1 (human)
# Optineurin (human) = tested on: Optineurin (human)
# [2] = tested on: Ornithine decarboxylase (human)
# Osteocalcin (human) = tested on: Osteocalcin (human)
# P2RX1 (human) = tested on: P2RX1 (human)
# P2RXL1 (human) = tested on: P2RXL1 (human)
# PAFAH1B2 (human) = tested on: PAFAH1B2 (human)
# PAGE2 (human) = tested on: PAGE2 (human)
# PAGE5 (human) = tested on: PAGE5 (human)
# PALM2 (human) = tested on: PALM2 (human)
# PANK1 (human) = tested on: PANK1 (human)
# PANK4 (human) = tested on: PANK4 (human)
# PAPOLA (human) = tested on: PAPOLA (human)
# PARD6B (human) = tested on: PARD6B (human)
# PARVG (human) = tested on: PARVG (human)
sequence,measurement,setting,value
GGTGACAGGGGTATGGGGAGGGG [G4-2 biotinylated (Ct1)],binding signal,ORM2 (human),-0.38 z-score
same,binding signal,ORMDL2 (human),-0.365 z-score
same,binding signal,OSBPL1A (human),-0.393 z-score
same,binding signal,OSTbeta (human),-0.385 z-score
same,binding signal,OTUB2 (human),-0.38 z-score
same,binding signal,[1],-0.39 z-score
same,binding signal,Optineurin (human),-0.396 z-score
same,binding signal,[2],-0.388 z-score
same,binding signal,Osteocalcin (human),-0.366 z-score
same,binding signal,P2RX1 (human),-0.362 z-score
same,binding signal,P2RXL1 (human),-0.377 z-score
same,binding signal,PAFAH1B2 (human),-0.402 z-score
same,binding signal,PAGE2 (human),-0.397 z-score
same,binding signal,PAGE5 (human),-0.396 z-score
same,binding signal,PALM2 (human),-0.384 z-score
same,binding signal,PANK1 (human),-0.379 z-score
same,binding signal,PANK4 (human),-0.381 z-score
same,binding signal,PAPOLA (human),-0.392 z-score
same,binding signal,PARD6B (human),-0.364 z-score
same,binding signal,PARVG (human),-0.397 z-score

# Two entries from above, reformatted:
sequence	measurement	setting	value
GGTGACAGGGGTATGGGGAGGGG [G4-2 biotinylated (Ct1)]	binding signal	P2RX1 (human)	-0.362 z-score
same	binding signal	P2RXL1 (human)	-0.377 z-score
